# PubChem BioAssay AID1347075 (National Center for Advancing Translational Sciences (NCATS), 2019)
# Screen size: about 400,000 compounds; about 5,500 (1.4%) were called active. The inconclusive results got no clear call from the source; some entries with a clear call stand among them for comparison. Calls come from the whole dose curve; as a rule, active = well fitted cell-killing curve with a large enough effect; inconclusive = small, poorly fitted or top-dose-only effect, or effect the other way; inactive = flat fitted curve, though single readings scatter. A potency beside an inconclusive call is a rough fit, not a confirmed value.
# Experiment: qHTS assay for MDR1-selective chemotherapeutics: Primary screen using the parental adenocarcinoma cell KB-3-1; note: nearly all actives have a fitted effect of over 60% in size
# Conditions: KB-3-1 viability, CellTiter-Glo ATP luminescence, 72 h; activity change, negative = cytotoxic: at 46.1 µM (top of the series)
# Method in brief: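 Multi-concentration cytotoxicity screen in KB-3-1 cells grown in DMEM lacking phenol red with 10% FBS. After 72 h at 37 °C with compound, ATP-dependent luminescence was recorded.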
# % is set by controls: 0 for no effect and ±100 for the full control effect; potency is the fitted concentration of half-maximal effect.
SMILES,Potency,"activity change, negative = cytotoxic"
CCOC(=O)c1ccc(Nc2nc3ccccc3nc2NS(=O)(=O)c2ccc(Cl)cc2)cc1,"inconclusive: 20.6 µM [cytotoxic, single point]",–
C=C1CC2(CC(c3ccccc3)OC(c3ccccc3)C2)OC1=O (stereo not drawn),"inconclusive: 29.1 µM [cytotoxic, single point]",–
COc1cccc(C2C=C(c3ccc(C)c(C)c3)Nc3nnnn32)c1OC (stereo not drawn),active: 4.11 µM,–
COc1cc(C2Oc3ccccc3C=C2[N+](=O)[O-])cc(OC)c1OC (stereo not drawn),"inconclusive: 20.6 µM [cytotoxic, single point]",–
O=C(O)CCCC[C@@H]1SC[C@@H]2NC(=O)N[C@@H]21,inactive,–
Cc1nn(-c2ccccc2)c2c1C1(C(=O)N3c4c(cccc41)C(C)CC3(C)C)C(C#N)=C(N)O2 (stereo not drawn),"inconclusive: 16.4 µM [cytotoxic, single point]",–
CCCn1c(/C=N/Nc2nc3ccccc3[nH]2)nc2ccccc21,inactive,–
O=C(O)c1[nH]c2ccccc2c1C=NCc1ccccc1Cl,inactive,–
N=c1ccn(CC(=O)c2ccc(-c3ccccc3)cc2)cc1,active: 5.17 µM,–
O=C(c1ccc(N2CCN(CCO)CC2)nc1)N1CCOCC1,inactive,–
O=C(Nc1cccc([N+](=O)[O-])c1)c1ccc([N+](=O)[O-])o1,inactive,–
C/C(=N\Nc1ccc2nncn2n1)c1ccccn1,"inconclusive: 3.26 µM [cytotoxic, full curve]",–
Nc1nccc(/C=C/c2c(Cl)cccc2Cl)n1,"inconclusive: 29.1 µM [cytotoxic, single point]",–
COc1ccc(C[C@H]2CN3C(=NC[C@@H]3Cc3ccccc3)N2CCNC(=O)CCC2CCCCC2)cc1,"inconclusive: 29.1 µM [cytotoxic, single point]",–
Cn1c(=O)[nH]c(=O)c2c1nc([N+](=O)[O-])n2Cc1ccccc1,"inconclusive: 16.4 µM [cytotoxic, single point]",–
CCn1ccc2cc(S(=O)(=O)N3CCCN(C(=O)Nc4cccc(Cl)c4)CC3)ccc21,"inconclusive: 29.1 µM [cytotoxic, single point]",–
COc1ccc(-c2nc3ccc(N4CCCC4)cc3c(=O)[nH]2)cc1OC,"inconclusive: 29.1 µM [cytotoxic, single point]",–
CCOc1ccc(NC(=O)CSc2nnc(C3CC3)n2C2CC2)cc1,inactive,–
C/C(=N/NC(=O)c1ccc(Br)o1)c1cccc(NC(=O)c2ccc(C)o2)c1,"inconclusive: 0.146 µM [cytotoxic, partial curve, poor fit]",–
O=C(c1ccoc1)N1CCN(c2cc(-c3ccco3)nc3cc(-c4ccccc4)nn23)CC1,"inconclusive: 18.4 µM [cytotoxic, single point]",–
CCCCCCn1c(=O)n2n(c1=O)[C@@H]1CN(S(=O)(=O)c3ccc(C)cc3)C[C@]1(O)[C@@H](OC(=O)Nc1cccs1)C2,"inconclusive: 18.4 µM [cytotoxic, single point]",–
COc1ccc(N(C)C(=O)c2cn(C3CCCCC3)c(=O)c3c2c2ccccc2n3C)cc1,inactive,–
CCOc1ccccc1NC(=O)COC(=O)CN1C(=O)NC(C)(C)C1=O,inactive,–

# Among those listed so far, four have an NH in an aromatic ring:
SMILES,Potency,"activity change, negative = cytotoxic"
CCCn1c(/C=N/Nc2nc3ccccc3[nH]2)nc2ccccc21,inactive,–
O=C(O)c1[nH]c2ccccc2c1C=NCc1ccccc1Cl,inactive,–
Cn1c(=O)[nH]c(=O)c2c1nc([N+](=O)[O-])n2Cc1ccccc1,"inconclusive: 16.4 µM [cytotoxic, single point]",–
COc1ccc(-c2nc3ccc(N4CCCC4)cc3c(=O)[nH]2)cc1OC,"inconclusive: 29.1 µM [cytotoxic, single point]",–

# (further entries)

SMILES,Potency,"activity change, negative = cytotoxic"
O=C(N[C@H]1CCC(=O)N(CCSc2ccc(Br)cc2)CC1)OCc1ccccc1,"inconclusive: 32.6 µM [cytotoxic, single point]",–
CCOC(=O)C1=C(C)NC2=C(C(=O)c3ccccc32)C1c1cccc2ccccc12 (stereo not drawn),"inconclusive: 29.1 µM [cytotoxic, single point]",–
Oc1ccc2c(c1)oc1cc(O)ccc12,inactive,–
O=C(N/N=C/c1cccc([N+](=O)[O-])c1O)c1cccs1,"inconclusive: 25.9 µM [cytotoxic, single point]",–
Cc1ccc(-c2nnc(N3CCN(C(=O)CSc4ncn[nH]4)CC3)c3ccccc23)cc1,"inconclusive: 29.1 µM [cytotoxic, single point]",–
O=C(Nc1ccccc1)C1=C[C@@H](c2ccc(Br)cc2)C[C@@H](OCc2ccc(CO)cc2)O1,"inconclusive: 16.4 µM [cytotoxic, partial curve]",–
CCOC(=O)c1c(NC(=O)C(Sc2ccccc2)c2ccccc2)sc(C(=O)N(C)C)c1C (stereo not drawn),"inconclusive: 29.1 µM [cytotoxic, single point]",–
O=C(NCc1ccccc1Cl)c1ccc2nc[nH]c2c1,inactive,–
CC1(C)CC(N2CCN(Cc3ccccc3)CC2)=CC(=[N+]2CCCCC2)C1,active: 1.46 µM,–
CCC[C@@H](CNC)NC[C@H](Cc1ccccc1)NCCCCc1ccccc1,"inconclusive: 25.9 µM [cytotoxic, single point]",–
N#CC1(NC(=O)COC(=O)C2CCN(S(=O)(=O)c3ccc4c(c3)OCCO4)CC2)CCCCC1,inactive,–
O=C(Nc1ccc(N2CCN(Cc3ccccc3F)CC2)cc1)c1ccc([N+](=O)[O-])o1,"inconclusive: 20.6 µM [cytotoxic, partial curve, poor fit]",–
Cc1cc(C)nc(SCCN2CCCCC2)n1,"inconclusive: 29.1 µM [rising, single point]",–
CC(C)COC(=O)N(C)c1ccc(C(O)(C(F)(F)F)C(F)(F)F)cc1,"inconclusive: 25.9 µM [cytotoxic, partial curve, poor fit]",–
Cc1ccc(S(=O)(=O)N2CCC(C(=O)N[C@@H](C)C(=O)NC3CCCCC3)CC2)cc1,"inconclusive: 29.1 µM [rising, single point]",–
Cc1cccc(C(=O)Nc2nc(C)c(C(=O)Nc3ccc4c(c3)CCC4)s2)c1,"inconclusive: 16.4 µM [cytotoxic, single point]",–
CN(C)c1ccc(N=Nc2ccc(S(=O)(=O)O)cc2)cc1,inactive,–
O=C(COc1ccc2c(-c3ccccc3)cc(=O)oc2c1)Nc1ccc(CN2CCOCC2)cc1,–,inconclusive: -26.4%
Cc1cc(N2CCCCC2)nc2ccc(NC(=O)c3cccc(Cl)c3)cc12,"inconclusive: 29.1 µM [cytotoxic, single point]",–
O=C1C=CC(=Nc2cccc3c2C(=O)c2ccccc2-3)O1,"inconclusive: 29.1 µM [cytotoxic, single point]",–
O=C1Nc2ccccc2N=C(c2ccccc2)C1N(C(=O)c1ccnc2ccccc12)c1ccccc1 (stereo not drawn),"inconclusive: 29.1 µM [cytotoxic, single point]",–
CN1C(=O)c2ccccc2Sc2ccc(NC(=O)c3ccccc3F)cc21,inactive,–
COc1ccccc1N1N=C(C(=O)c2ccccc2)C2C(=O)N(c3ccc(Br)cc3)C(=O)C21 (stereo not drawn),"inconclusive: 29.1 µM [cytotoxic, single point]",–

SMILES,Potency,"activity change, negative = cytotoxic"
CCCCc1c(-c2ccccc2OC)ncn1CCc1cccc(OC)c1,"inconclusive: 29.1 µM [cytotoxic, single point]",–
C=CCOc1ccc(CN(C)c2ccc(S(=O)(=O)N3CCN(C)CC3)cc2[N+](=O)[O-])cc1,"inconclusive: 18.4 µM [cytotoxic, single point]",–
CCC(c1nnnn1C(C)(C)CC)N1CCN(c2ccccc2F)CC1 (stereo not drawn),"inconclusive: 29.1 µM [rising, single point]",–
O=C1c2oc3ccccc3c(=O)c2C(c2ccccc2)N1Cc1ccc2c(c1)OCO2 (stereo not drawn),"inconclusive: 18.4 µM [cytotoxic, single point]",–
Cc1cnc(NC(=O)CSc2nnc(Cc3ccccc3)o2)s1,inactive,–
Cc1ccc(S(=O)(=O)N2CCOCC2)cc1NC(=O)COc1ccccc1Cc1ccccc1,inactive,–
CS(=O)(=O)N(CC(=O)N1CCN(c2ccccc2)CC1)c1cccc(Br)c1,"inconclusive: 23.1 µM [cytotoxic, single point]",–
CC(C)CC1c2[nH]c3ccccc3c2CCN1CCCn1cccn1 (stereo not drawn),"inconclusive: 20.6 µM [cytotoxic, partial curve]",–
CCOC(=O)c1cccc(NC(=O)[C@@H](c2ccccc2)N2Cc3ccccc3C2=O)c1,inactive,–
CCCNC(=O)N1CCC(C(=O)c2cccc(F)c2)CC1,inactive,–
O=C(C[n+]1cccc(CNC(=O)c2ccc(OC(F)F)cc2)c1)Nc1ccc(SC(F)F)cc1,"inconclusive: 29.1 µM [cytotoxic, single point]",–
CC1CC/C(=C\c2ccc3c(c2)OCO3)C(=O)/C1=C/c1ccc2c(c1)OCO2 (stereo not drawn),active: 25.9 µM,–
Cc1cc(C)n2nc(CCCO)nc2n1,inactive,–
COc1cccc2c(=O)c(C(=O)NCc3cccs3)c[nH]c12,"inconclusive: 25.9 µM [cytotoxic, single point]",–
CCN1C(=O)c2ccccc2Sc2ccc(C(=O)NCCCN(CC(C)C)CC(C)C)cc21,"inconclusive: 20.6 µM [cytotoxic, partial curve, poor fit]",–
CCC1CCCCN1C(=O)CSC1=NN2CCCC(=O)N=C2S1 (stereo not drawn),–,inconclusive: -2.02%
COc1cccc(Cn2cnc(-c3ccccc3OC)c2-c2ccco2)c1,"inconclusive: 29.1 µM [cytotoxic, single point]",–
Cc1ccc(C(=O)Nc2ccc(-c3cn4cccnc4n3)cc2)cc1C,"inconclusive: 29.1 µM [cytotoxic, single point]",–
CC(=O)c1cccc(-n2nnnc2SCC(=O)Nc2cccc(NC(=O)c3ccco3)c2)c1,inactive,–
CCOC(=O)c1c(C)nc2sc3c(=O)n(-c4ccc(C(C)=O)cc4)cnc3c2c1-c1ccc(Cl)cc1,"inconclusive: 16.4 µM [cytotoxic, partial curve, poor fit]",–
O=C(NCC1CCN(Cc2cccc(Cl)c2)CC1)Nc1cc(Cl)ccc1Cl,"inconclusive: 20.6 µM [cytotoxic, single point]",–
O=C(NCCc1ccccc1)c1cc(S(=O)(=O)N2CCOCC2)ccc1F,inactive,–
